Measurements: article PMC4275244
No constants are given. Whether binding was seen depends on the method and setting. In cells and extracts the contact can be indirect. Binding can be weak; no strength is given.

Target: T1, plakoglobin (human (endogenous in BxPC-3)) (UniProt P14923)
T1 sequence: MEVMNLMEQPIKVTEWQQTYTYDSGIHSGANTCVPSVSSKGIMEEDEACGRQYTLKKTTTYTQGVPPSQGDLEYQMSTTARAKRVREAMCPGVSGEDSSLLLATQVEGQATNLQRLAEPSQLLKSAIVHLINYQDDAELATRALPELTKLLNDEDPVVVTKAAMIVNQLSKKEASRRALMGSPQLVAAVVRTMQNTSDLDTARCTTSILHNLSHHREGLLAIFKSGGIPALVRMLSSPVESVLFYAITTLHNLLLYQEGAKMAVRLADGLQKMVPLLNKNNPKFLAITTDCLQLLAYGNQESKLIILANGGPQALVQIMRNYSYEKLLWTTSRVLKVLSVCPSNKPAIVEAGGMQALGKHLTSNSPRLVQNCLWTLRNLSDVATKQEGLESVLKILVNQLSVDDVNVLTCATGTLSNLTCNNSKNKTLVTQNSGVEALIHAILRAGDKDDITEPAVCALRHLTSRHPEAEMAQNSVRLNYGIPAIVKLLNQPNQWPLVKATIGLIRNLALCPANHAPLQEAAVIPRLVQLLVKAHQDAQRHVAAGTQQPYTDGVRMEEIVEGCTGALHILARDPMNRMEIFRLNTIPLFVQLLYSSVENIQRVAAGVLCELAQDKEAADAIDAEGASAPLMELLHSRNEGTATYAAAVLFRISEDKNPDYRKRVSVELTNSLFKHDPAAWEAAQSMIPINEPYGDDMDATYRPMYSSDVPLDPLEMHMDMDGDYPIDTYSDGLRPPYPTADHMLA
Assay: co-IP; whole cell lysates (50 mM Tris pH 8.0, 150 mM NaCl, 1% NP40, 2 mM EDTA) of BxPC-3 wild type and β-catenin deficient clones #4, #31, #79, #93, #111; anti-plakoglobin antibody on Protein G Dynabeads, 400 µg protein, 4°C over night; normal rabbit IgG as negative control; blots for plakoglobin and E-cadherin

binding: binds
Substance: E-cadherin (human (endogenous in BxPC-3))
